# Results: PubChem BioAssay AID194 (DTP/NCI, 2004)
# The list shows only some results of the screen, not a fair sample: it covers a few groups of compounds. Other doses and runs of a compound may be missing. T/C: endpoint of the treated group in % of that of the vehicle group. Some T/C values are marked as having no survivor count here; that says nothing about deaths at the dose. Schedule codes are those of the source, taken here to give the interval after Q, in days (D) or hours (H), and the number of doses after X. Where survival is the endpoint, this PubChem deposit counts one and a half times the control or more as active, and values a quarter to a half above the control carry no call in these data; other NCI protocols may use other cut-offs.
# Tested on: BDF1 mice, B16 melanoma s.c., survival/tumor T/C
# Test: NCI In Vivo Anticancer Drug Screen. Data for tumor model B16 Melanoma (subcutaneous) in B6D2F1 (BDF1) mice
# Conditions: schedule: Q01DX009 (ip), vehicle: saline
# Method: The antitumor activity of compounds was measured in mice bearing transplantable tumors. Survival or tumor size were measured and the results are expressed as the measurement made in the treated group (T) divided by the measurement made in the vehicle treated control group (C). The tumor model used in this assay is B16 Melanoma (subcutaneous) in B6D2F1 (BDF1) mice
smiles,measurement,setting,value
CN(CCCl)CCCl,T/C,"T/C endpoint: median survival time, dose: 0.08 mg/kg/injection, higher T/C = longer survival",135 % of control [survivor count not shown]
same,T/C,"T/C endpoint: median survival time, dose: 0.15 mg/kg/injection, higher T/C = longer survival",100 % of control [survivor count not shown]
same,T/C,"T/C endpoint: median survival time, dose: 0.3 mg/kg/injection, higher T/C = longer survival",128 % of control [survivor count not shown]
same,T/C,"T/C endpoint: median survival time, dose: 0.6 mg/kg/injection, higher T/C = longer survival",101 % of control [survivor count not shown]
same,T/C,"T/C endpoint: median survival time, dose: 12.5 micrograms/kg/injection, higher T/C = longer survival",123 % of control [survivor count not shown]
same,T/C,"T/C endpoint: median survival time, dose: 25.0 micrograms/kg/injection, higher T/C = longer survival",126 % of control [survivor count not shown]
same,T/C,"T/C endpoint: median survival time, dose: 50.0 micrograms/kg/injection, higher T/C = longer survival",93 % of control [survivor count not shown]
same,T/C,"T/C endpoint: median survival time, dose: 100.0 micrograms/kg/injection, higher T/C = longer survival",128 % of control [survivor count not shown]
same,T/C,"T/C endpoint: median tumor weight (est.), dose: 125.0 micrograms/kg/injection, evaluation day not shown, higher T/C = larger tumour",55 % of control [survivor count not shown]
same,T/C,"T/C endpoint: median tumor weight (est.), dose: 250.0 micrograms/kg/injection, evaluation day not shown, higher T/C = larger tumour",75 % of control [survivor count not shown]
same,T/C,"T/C endpoint: median tumor weight (est.), dose: 500.0 micrograms/kg/injection, evaluation day not shown, higher T/C = larger tumour",57 % of control [survivor count not shown]
same,T/C,"T/C endpoint: median tumor weight (est.), dose: 1000.0 micrograms/kg/injection, evaluation day not shown, higher T/C = larger tumour",46 % of control [survivor count not shown]
